Laboratory results published in article PMC3691326, “Structure of the Human Telomeric Stn1-Ten1 Capping Complex” (PLoS ONE, 2013).
Numbering of substitutions follows the chain as printed. Results are given in words; binding and its absence hold for the method and conditions named.

What was measured:
[1] = target: T1, human Stn1 (D78A/I164A), full length (human) (UniProt Q9H668); assay: condition: hTen1 injected at 125 µM into hStn1 at 12 µM; ITC; MicroCal iTC200; hTen1 at 125 µM injected into the cell with hStn1 at 12 µM; 20°C; 300 mM KCl, 25 mM Tris-HCl pH 7.5, 1 mM DTT, 5% glycerol; 2.47 µL injections; both purified
T1 sequence: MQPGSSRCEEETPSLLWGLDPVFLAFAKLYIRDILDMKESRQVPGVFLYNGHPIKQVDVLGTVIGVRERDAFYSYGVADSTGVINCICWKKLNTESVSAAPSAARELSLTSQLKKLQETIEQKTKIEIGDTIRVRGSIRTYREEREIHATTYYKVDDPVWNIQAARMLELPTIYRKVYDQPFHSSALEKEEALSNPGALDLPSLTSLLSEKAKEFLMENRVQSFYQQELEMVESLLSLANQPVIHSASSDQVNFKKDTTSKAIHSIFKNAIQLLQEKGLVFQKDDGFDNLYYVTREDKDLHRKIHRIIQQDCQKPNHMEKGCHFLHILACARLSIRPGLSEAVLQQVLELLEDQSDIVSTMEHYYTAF

[2] = target: T2, human Stn1 (D78A/M167A), full length (human) (UniProt Q9H668); assay: as above
T2 sequence: T1 sequence with A164I, M167A

B1: human Ten1, full length, wild type (natural protein, UniProt Q86WV5 1-123, looked up)
chain: MMLPKPGTYYLPWEVSAGQVPDGSTLRTFGRLCLYDMIQSRVTLMAQHGSDQHQVLVCTKLVEPFHAQVGSLYIVLGELQHQQDRGSVVKARVLTCVEGMNLPLLEQAIREQRLYKQERGGSQ
notes: human Ten1 (hTen1), subunit of the human CST complex, full length; Purification is described only for the complex with hStn1N (cells mixed before lysis; tags cleaved by TEV); also called hTen1; hTen1(WT); source: E. coli BL21-CodonPlus(DE3) RIPL, purified; not shown: His, N-terminal, cleaved
In the case of B1, the binding [1] is reported as “no binding” and the binding [2] is reported as “no binding”.
